The text below walks through data of patent publication US20140086913A1 (Gilead, published 2014).

One assay deals with T1, mouse ECD-DDR1-Fc (mouse; human, UniProt Q03146 22-414).
T1 construct: also called mouse DDR1-ECD; wild-type mouse DDR1-ECD; not shown: human IgG1 Fc of the vector pFuse-hIgG1-Fc1 (Invivogen)
T1 sequence: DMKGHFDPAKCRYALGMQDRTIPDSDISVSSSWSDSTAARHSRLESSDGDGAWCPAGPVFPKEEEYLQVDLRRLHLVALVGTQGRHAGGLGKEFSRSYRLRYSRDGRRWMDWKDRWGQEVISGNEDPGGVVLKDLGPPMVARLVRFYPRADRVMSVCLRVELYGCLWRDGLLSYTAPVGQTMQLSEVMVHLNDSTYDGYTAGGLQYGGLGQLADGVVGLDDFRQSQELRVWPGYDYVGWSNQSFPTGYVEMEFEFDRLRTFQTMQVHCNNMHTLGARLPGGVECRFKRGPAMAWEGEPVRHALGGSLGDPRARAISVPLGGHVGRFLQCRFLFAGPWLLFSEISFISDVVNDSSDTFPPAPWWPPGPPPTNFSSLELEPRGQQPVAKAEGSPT
The assay can be described thus: ELISA of Example 8.

Assay [1] deals with human DDR1-ECD in the human IgG1-Fc expression vector (Example 8) (human) (UniProt Q08345). The assay can be described thus: ELISA of Example 8.
For assay [2], the target named is T2, mouse DDR1 stably expressed on HEK293 cells (mouse) (UniProt Q03146).
T2 sequence (looked up): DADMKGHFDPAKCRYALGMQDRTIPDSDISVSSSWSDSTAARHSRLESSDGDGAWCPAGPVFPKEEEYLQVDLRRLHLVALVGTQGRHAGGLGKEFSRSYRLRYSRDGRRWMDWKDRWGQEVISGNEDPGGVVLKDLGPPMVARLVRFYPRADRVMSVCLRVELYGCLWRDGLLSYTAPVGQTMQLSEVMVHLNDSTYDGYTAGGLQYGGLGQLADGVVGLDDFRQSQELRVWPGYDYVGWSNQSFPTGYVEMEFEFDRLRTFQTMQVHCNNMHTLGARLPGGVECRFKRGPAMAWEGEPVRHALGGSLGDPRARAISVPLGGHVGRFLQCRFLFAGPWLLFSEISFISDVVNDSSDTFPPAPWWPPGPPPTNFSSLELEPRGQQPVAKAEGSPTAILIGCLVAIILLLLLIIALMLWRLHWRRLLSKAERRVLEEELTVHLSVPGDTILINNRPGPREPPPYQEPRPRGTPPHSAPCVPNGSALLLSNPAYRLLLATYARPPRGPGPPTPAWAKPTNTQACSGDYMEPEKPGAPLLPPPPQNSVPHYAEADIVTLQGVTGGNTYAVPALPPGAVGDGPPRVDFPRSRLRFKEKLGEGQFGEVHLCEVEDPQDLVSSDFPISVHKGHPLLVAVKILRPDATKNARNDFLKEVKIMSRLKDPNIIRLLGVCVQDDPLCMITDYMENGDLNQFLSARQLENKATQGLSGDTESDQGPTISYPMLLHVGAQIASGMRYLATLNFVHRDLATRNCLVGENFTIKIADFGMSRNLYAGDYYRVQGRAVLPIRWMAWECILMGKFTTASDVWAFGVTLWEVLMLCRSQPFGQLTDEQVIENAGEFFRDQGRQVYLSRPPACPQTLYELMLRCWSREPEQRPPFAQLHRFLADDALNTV
The assay can be described thus: flow cytometry on transfected HEK293 cells. In general terms: In flow cytometry, cells or beads pass a laser one at a time.

These are yes or no findings as the source states them, for the method shown. Some binding calls cover weakened binding; strength is not graded here. For some assays here: Where a sequence is shown, tags or fusion partners need not be part of it.

B1: AB2061 (antibody, V domains shown)
VH: EIQLQQSGPELVNPGASVKVSCKASGYSFTDYNMYWVKQSHGKSLEWIGYIDPYNGGTSYNQKFKGKATLTVDKSSSTAFMHLNSLTSEDSAVYYCAREYYGSRLWYFDVWGAGTAVTVSS
VL: DIVMTQSPSSLAMSVGQKVTMSCKSSQSLLNRNNQKNYLAWYQQKPGQSPKLLVYFASTRESGVPDRFIGSGSGTDFTLTLSSVRAEDLAENFCQQHYSTPFTFGSGTRLEIKR
notes: mouse hybridoma mAb
As to B1, the binding entry (in the assay with mouse ECD-DDR1-Fc; in assay [1]) was “binds” throughout.

B2: AB2074 (antibody, V domains shown)
VH: B1 VH
VL: B1 VL
notes: mouse hybridoma mAb
As to B2, the binding result (with mouse ECD-DDR1-Fc; in assay [1]) was “binds” throughout.

B3: AB2078 (antibody, V domains shown)
VH: B1 VH
VL: B1 VL
notes: mouse hybridoma mAb
For B3, the binding entry (in the assay with mouse ECD-DDR1-Fc; in assay [1]; in assay [2]) was “binds” each time.

B4: AB2004 (antibody, V domains shown)
VH: DVHLQESGPDLVKPSQSLSLTCTVTDYSITSGYGWHWIRQFPGNKLEWMGYIHYGGSTKYNSSLKSRISITRDTSKNQFFLQLKSVTTDDTGTYYCATSGNYGFAYWGQGTLVTVSA
VL: DIVLTQSPTSLAVSLGQRATMSCRASESVDDYGTSFMHWYQQKPGQPPKLLIYRASNLESGIPARFSGSGSRADFTLSINPVEPDDVATYYCQQSNEDPFTFGSGTKLEIKR
notes: mouse hybridoma mAb
With B4, the binding result in assay [2] is listed as “binds”.
